Percent effect of library compounds

From ChEMBL document CHEMBL3988442, “University of Dundee, Small-Polar-MMV Screening Library” (2021).

Results are given as percent effect.
How 0% and 100% were set is not recorded. Most values in the screen are low, and negative values occur.
Compounds were drawn at random from those tested, without regard to their results.

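Whole-parasite assay of Trypanosoma brucei over 72 hours; the read-out is not stated. Compounds at 30 µM. Higher reads as stronger inhibition (inferred: compounds with an IC50 in retests scored well above the rest). Values scatter widely below zero; nearly all retest evidence comes from the higher of the two concentrations used. Of about 64,000 compounds tested this way, about 940 (1.5%) reached 50% or more in at least one test.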

compound	effect
O=C(NCc1ccc2c(c1)OCCO2)N1CCC(CO)CC1	-69.58
Fc1ccc2[nH]c(C3CCCN3CCCn3cccn3)nc2c1 (centres undefined)	-49.14
CC(Nc1ccc(CN2CCCC2=O)cc1)C(=O)N(C)CCC#N (centres undefined)	-15.28
COc1cccc(CNC(=O)CC2CSc3nc(C)c(C)c(=O)n32)c1 (centres undefined)	1.805
COc1ccc(Cl)cc1S(=O)(=O)N(C)CC(=O)Nc1ccon1	-50.46
Cc1nc(NC2CCCC2)cc(C2CCN2C(=O)c2ccccn2)n1 (centres undefined)	-9.805
[H][C@@]12C[C@H](C(=O)NC3CCC3)[C@@]([H])(CN(S(=O)(=O)c3cccc(C)c3)C1)O2	-59.64
CCN1CCc2[nH]cnc2C12CCN(c1ncc(C(=O)O)cc1Cl)CC2	-40.73
Cc1ccc(-c2n[nH]cc2CNCC2CCN(CC(F)(F)F)C2)o1.Cl (centres undefined)	-7.842
Cc1cccc(NCC(=O)Nc2cc(F)ccc2F)c1C(N)=O	6.71
c1ccc2ncc(CC3CCNCC3)cc2c1	-29.82
CC(=O)Nc1nc2c(s1)CN(CC(=O)Nc1ccc(C)c(Cl)c1)CC2	4.776
COCCCN(C)[C@@H]1c2ccccc2C2(CCNCC2)[C@H]1O	-201.3
COC[C@]1(O)CCN(Cc2cnc(N3CCOCC3)nc2)CC1(C)C	3.923
COc1ccccc1OCC(=O)NS(=O)(=O)c1ccc(Br)s1	2.022
CCC(C)n1cnc(S(=O)(=O)N(C)C)c1 (centres undefined)	-2.469
C1CCC(N2CCCN(c3nc(C4CC4)no3)CC2)C1	-71.37
Cn1cc(C(NCCc2ccccn2)c2cccc(F)c2)cn1 (centres undefined)	-56.99
Cc1ccc(CN2CCC(O)(Cn3nc(-c4cccs4)oc3=O)CC2)o1.O=C(O)CC(O)(CC(=O)O)C(=O)O	-33.93
CN(Cc1nc(COc2ccccc2)no1)CC1Cc2ccccc2O1 (centres undefined)	6.479
CCNC(=O)[C@@H]1CN(Cc2ccccc2)C[C@H]1C(=O)c1ccc(F)cc1	-6.399
O=S(=O)(c1ccc(F)cc1)N1CCCC(c2nccs2)C1 (centres undefined)	-13.88
COCCN1CCN(CCCS(=O)(=O)N(C)C)CC1C (centres undefined)	-13.13
CCc1ncc2c(n1)CN(CCCOc1ccc(C#N)cc1)CC2	-2.75
Cn1cccc1C(=O)NCc1cn2c(n1)CN(CC1CCOC1)CC2 (centres undefined)	-17.54
Cc1cc(-c2nn3c(C4CC4)nnc3s2)on1	-30.69
Cc1nn(C)c(N(C)C)c1CNCc1cnn(Cc2ccccc2)c1	-1.236
Cc1nccn1-c1cncc(C2CCCN2Cc2cccnc2)n1 (centres undefined)	-25.07
CCN(CC)CCCNCC1CCOC(C)(C)C1 (centres undefined)	-0.8944
CN(C)c1cccc(C2CCCN2S(N)(=O)=O)c1 (centres undefined)	-22.19
CCCS(=O)(=O)N1CCC2(CCC(=O)N(CCc3cccnc3)C2)CC1	-8.106
COCC(=O)N1CCN(C(=O)NC(C)C)CC2(CC(=O)N(C)C2)C1 (centres undefined)	-2.67
COCC(=O)N1CCC(c2cc(-c3ccc(C)cc3)n[nH]2)C1 (centres undefined)	-9.865
COc1cc(C2SCC(=O)Nc3n[nH]cc32)cc(OC)c1O (centres undefined)	53.45
CC[C@H]1N(CC2CCC2)CCC[C@]12CCC(=O)N2Cc1ccncc1.O=C(O)C(F)(F)F.O=C(O)C(F)(F)F	-10.96
Cc1ccc(-n2ccnc2)c(C(=O)NCCOCC(F)(F)F)c1	-5.261
Cc1cc(C)nc(N2CCC(c3cncc(-n4ccnc4)n3)CC2)n1	-14.35
CCc1[nH]ncc1C(=O)N1CCCN(Cc2nccn2C(C)C)CC1	-2.603
O=C(O)C(F)(F)F.O=C(O)C(F)(F)F.[H][C@@]12CN(CCOC)C[C@]1([H])[C@H](OC)CCN2Cc1cnn(C)c1	-0.8695
CC(C)c1noc([C@@H]2C[C@H](NS(=O)(=O)Cc3ccccc3)CN2C)n1	-2.91
O=C(O)C(F)(F)F.[H][C@]12CN(Cc3cccc(F)c3)C(=O)[C@@]1([H])CN(C1CCOCC1)C2	-129.8
COc1ncc(CN2CCOC(Cc3cccc4ccccc34)C2)cn1 (centres undefined)	8.161
COc1ccccc1CCNS(=O)(=O)N1CCOCC1	-48.09
[H][C@@]12CCCO[C@]1([H])[C@H](OCc1ccccn1)CN2S(=O)(=O)N(C)C	-38.91
COc1ccc(F)cc1C(C)NC(=O)Nc1nnc(C)s1 (centres undefined)	14.32
CCn1c(C2CCN(C(=O)c3cc(CC(C)C)no3)CC2)nn(C)c1=O	-17.65
COCCNc1nc(-n2nc(C)cc2C)nc2sc3c(c12)CCCC3	-56.32
Cn1cncc1C(=O)N1CCCC(c2ccn[nH]2)C1 (centres undefined)	-32.33
Cl.Cn1cccc1C(=O)N1CCc2c(CNS(C)(=O)=O)cncc2C1	-8.667
O=C(NCc1cccc(C(F)(F)F)c1)C(c1cccnc1)N1CCCC1 (centres undefined)	23.64
COc1cccc2c3c(c(=O)n(C)c12)CCC(C)(C)O3	-53.16
CN1CCN(CC2CC2)C(=O)c2cnc(N3CCC(CO)CC3)nc21	-3.463
CC(Cc1ccco1)NC(=O)Nc1cnn(CC(N)=O)c1 (centres undefined)	-19.34
CCS(=O)(=O)c1ncc(CN(C)CCc2ccccn2)n1CCOC	-16.85
N#Cc1cc(CSCCN2CCOCC2)ccc1F	4.188
[H][C@]12CCN(C(=O)Cc3ccc(C)cc3)[C@@]1([H])CCC(=O)N2	-30.3
O=C(c1ccc2nccn2c1)N1CCC(CCn2cccn2)CC1	1.859
N#Cc1cccc(CN(CC(=O)N2CCCC2)CC2CCCO2)c1 (centres undefined)	-3.078
Cc1ccc(CN2CCC(n3cc(C(O)c4ccccc4)nn3)CC2)o1 (centres undefined)	12.29
COc1cc(CN2CCN(c3cccc(OC)c3)C(=O)C2)cc(OC)c1	-41.8
CCCc1cc(CN(C)C2CC(C)(C)NC(C)(C)C2)n[nH]1	-10.11

5 of the entries, repeated:

compound,effect
CN1CCN(CC2CC2)C(=O)c2cnc(N3CCC(CO)CC3)nc21,-3.463
COc1cc(C2SCC(=O)Nc3n[nH]cc32)cc(OC)c1O (centres undefined),53.45
CC(Nc1ccc(CN2CCCC2=O)cc1)C(=O)N(C)CCC#N (centres undefined),-15.28
Cc1ccc(CN2CCC(n3cc(C(O)c4ccccc4)nn3)CC2)o1 (centres undefined),12.29
O=C(NCc1cccc(C(F)(F)F)c1)C(c1cccnc1)N1CCCC1 (centres undefined),23.64